# In patent publication EP4620480A1, “IMPLANTATION FACILITATOR, AND SCREENING SYSTEM THEREFOR” (Kansai Medical University Educational Corporation, priority 2022, dated 2025):
# Not every detail of the peptide structures is certain; ends, links or a residue may be inferred. Peptide text beside a SMILES is read from it. * marks the point of attachment. Myristoyl = CCCCCCCCCCCCCC(=O)*
# Legend:
# [1] = test system: embryo and uterine organoid; assay: In vitro implantation system (artificial uterus): implantation-like reaction; format: cell-based, mouse; settings: fusion between embryo and uterine organoid; for rate at which an implantation-like reaction was observed (embryos fused/total): control 5/22; for rate at which an implantation-like reaction was observed (percent): control 22.7%
# [2] = test system: integrin activation complexes; assay: Ability to form integrin activation complexes, measured using AlphaScreen; format: biochemical; settings: at a concentration of 8 µM
# [3] = test system: embryos (mouse blastocysts); assay: Attachment of embryos to glass surface; format: cell-based; settings: attached/total embryos; control 0/13; p < 0.01, chi-square test
# activated integrin β1 = assay: Activated integrin β1 staining in cultured blastocysts; format: cell-based, mouse; settings: blastocysts without zona pellucida, glass-bottom dishes, implantation medium, 3 days; antibody MAB2259Z
# B6D2F 1 mouse embryos = assay: Embryo transfer in implantation window shift model (Examples 8 and 9); format: in vivo; settings: 8 µM in KSOM medium at transfer, E15.5
SMILES,rate at which an implantation-like reaction was observed (embryos fused/total) [1],rate at which an implantation-like reaction was observed (percent) [1],integrin activation effect [2],rate of attachment of embryos to the glass surface [3],fluorescent staining of activated integrin β1 in embryos versus control group (activated integrin β1),"transferred embryos successfully implanted (B6D2F 1 mouse embryos; 4.5 dpc blastocysts into 2.5 dpc pseudopregnant mice, control none of 24)",implanted embryos that developed normally (B6D2F 1 mouse embryos; out of the 22 implanted embryos)
"CCCCCCCCCCCCCC(=O)N[C@@H](CCCCN)C(=O)N[C@@H](Cc1ccccc1)C(=O)N[C@@H](CCC(=O)O)C(=O)N[C@@H](CCC(=O)O)C(=O)N[C@@H](CCC(=O)O)C(=O)N[C@@H](CCCNC(=N)N)C(=O)N[C@@H](CCSC)C(=O)N[C@@H](CCCNC(=N)N)C(=O)N[C@@H](CS)C(=O)N[C@@H](CCCCN)C(=O)N[C@@H](Cc1c[nH]c2ccccc12)C(=O)N[C@@H](CCSC)C(=O)N[C@H](C(=O)O)[C@@H](C)O [Iznm-1, Myr-KFEEERMRCKWMT] (Myristoyl-KFEEERMRCKWMT-OH)",6/14,42.9%,approximately 5 fold,–,–,–,–
"CCCCCCCCCCCCCC(=O)N[C@@H](CCCCN)C(=O)N[C@@H](Cc1ccccc1)C(=O)N[C@@H](CCC(=O)O)C(=O)N[C@@H](CCC(=O)O)C(=O)N[C@@H](CCC(=O)O)C(=O)N[C@@H](CCCNC(=N)N)C(=O)N[C@@H](CO)C(=O)N[C@@H](CCCNC(=N)N)C(=O)N[C@@H](CS)C(=O)N[C@@H](CCCCN)C(=O)N[C@@H](Cc1c[nH]c2ccccc12)C(=O)N[C@@H](CCSC)C(=O)N[C@H](C(=O)O)[C@@H](C)O [Iznm-2, Myr-KFEEERSRCKWMT] (Myristoyl-KFEEERSRCKWMT-OH)",12/19,63.2%,approximately 14 fold,13/14,more strongly fluorescently stained,22 out of the 41,12
